Patent US6713506B2, “Tea polyphenol esters and analogs thereof for cancer prevention and treatment” (University of South Florida, priority 2000, dated 2004)

System: purified 20S proteasome
Assay: HPLC analysis of cleavage of tea polyphenols by purified 20S proteasome
Assay type: biochemical
[1] = ECG 0.5 mM, 12 h with 20S proteasome

## O=C(O[C@@H]1Cc2c(O)cc(O)cc2O[C@@H]1c1cc(O)c(O)c(O)c1)c1cc(O)c(O)c(O)c1 [EGCG, (−)-epigallocatechin-3-gallate]
2 h incubation
  gallic acid-like peak, concentration as % of EGCG: < 5%
2 h incubation with 20S proteasome
  decrease in the level of EGCG: 40%
4 h incubation
  gallic acid-like peak, equivalent to % of EGCG: 13%
4 h incubation with 20S proteasome
  disappearance of EGCG: 80%
6 h or longer incubation
  gallic acid-like product, level equivalent to % of EGCG: 20-25%
6 h or longer incubation with 20S proteasome
  disappearance of EGCG: > 95%

## (−)-epicatechin-3-gallate [ECG]
[1]
  decrease in levels of ECG: ~20%
  increase in levels of both gallic acid-like and EC-like products: 3-4%

## Oc1cc(O)c2c(c1)O[C@H](c1cc(O)c(O)c(O)c1)[C@H](O)C2 [EGC, (−)-epigallocatechin]
  degradation by the 20S proteasome (in words): degraded
